Measurements reported in PubChem BioAssay AID1259298 (Sanger Institute, 2017)
Here is an unselected part of 794 reagents. Over the whole deposit, 20 (2.5%) were called active. 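Calls rest only on the knock-down-alone score; drug synergy scores played no part in them.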 Further read-outs or replicates are left out here. The record does not give: the amount of reagent, the time to read-out.

- Test: 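Kinome knock-downs lethal on their own or synergising with anchor drugs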 (primary screen)
- System: HT55 human colorectal cancer cell line
- Knock-down reagent: siRNA pool against human genes
- Challenge: anchor drug BYL719 1 µM, cetuximab 5 µg/ml or trametinib 10 nM, or DMSO vehicle alone
- Read-out: 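Mean viability over replicates versus non-targeting pool, a robust z-score without drug, and per-drug synergy scores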
- Direction: robust z-score, knock-down alone: higher = more cells remaining; low means essential gene
- Active means: 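Essential when the robust z-score for knock-down alone with DMSO is below -3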
- Meaning of the calls: active = essential (knock-down alone); inactive = no change alone

target gene | robust z-score, knock-down alone | activity call
MOS (MOS proto-oncogene, serine/threonine kinase) | 0.58 | inactive
BPTF (bromodomain PHD finger transcription factor) | -1.08 | inactive
ABL1 (ABL proto-oncogene 1, non-receptor tyrosine kinase) | 0.58 | inactive
XYLB (xylulokinase) | -0.796 | inactive
ALPK1 (alpha kinase 1) | 0.58 | inactive
NRBP1 (nuclear receptor binding protein 1) | -2.3 | inactive
TNIK (TRAF2 and NCK interacting kinase) | 0.58 | inactive
TGFBR3 (transforming growth factor beta receptor 3) | 0.58 | inactive
LATS2 (large tumor suppressor kinase 2) | 0.58 | inactive
TPK1 (thiamin pyrophosphokinase 1) | 0.58 | inactive
HUS1 (HUS1 checkpoint clamp component) | -0.0179 | inactive
PIKFYVE (phosphoinositide kinase, FYVE-type zinc finger containing) | 0.58 | inactive
DYRK1A | 0.58 | inactive
GRK7 (G protein-coupled receptor kinase 7) | -0.17 | inactive
GALK2 (galactokinase 2) | 0.58 | inactive
ROR2 (ROR family WNT receptor 2) | 0.58 | inactive
TRIB1 (tribbles pseudokinase 1) | 0.58 | inactive
NUAK2 (NUAK family kinase 2) | -1.15 | inactive
HIPK4 (homeodomain interacting protein kinase 4) | 0.58 | inactive
CMPK1 (cytidine/uridine monophosphate kinase 1) | 0.58 | inactive
PAPSS2 (3'-phosphoadenosine 5'-phosphosulfate synthase 2) | 0.299 | inactive
CSNK2A2 (casein kinase 2 alpha 2) | -2.12 | inactive
FGFR4 (fibroblast growth factor receptor 4) | 0.58 | inactive
BUB1B (BUB1 mitotic checkpoint serine/threonine kinase B) | -0.391 | inactive
GUCY2D (guanylate cyclase 2D, retinal) | -2.48 | inactive
CAMK2N1 (calcium/calmodulin dependent protein kinase II inhibitor 1) | -4.38 | active
CAMK1G (calcium/calmodulin dependent protein kinase IG) | -0.361 | inactive
MED24 (mediator complex subunit 24) | 0.58 | inactive
PKMYT1 (protein kinase, membrane associated tyrosine/threonine 1) | -0.0828 | inactive
ERBB3 (erb-b2 receptor tyrosine kinase 3) | 0.58 | inactive
SGK1 (serum/glucocorticoid regulated kinase 1) | 0.39 | inactive
CDK1 (cyclin dependent kinase 1) | 0.58 | inactive
PFKFB2 (6-phosphofructo-2-kinase/fructose-2,6-biphosphatase 2) | 0.386 | inactive
MAPK1 (mitogen-activated protein kinase 1) | 0.379 | inactive

4 entries from above, reformatted:
target gene	robust z-score, knock-down alone	activity call
HUS1 (HUS1 checkpoint clamp component)	-0.0179	inactive
PIKFYVE (phosphoinositide kinase, FYVE-type zinc finger containing)	0.58	inactive
DYRK1A	0.58	inactive
GRK7 (G protein-coupled receptor kinase 7)	-0.17	inactive

Next entries follow.
target gene | robust z-score, knock-down alone | activity call
TYK2 (tyrosine kinase 2) | -0.676 | inactive
RPS6KL1 (ribosomal protein S6 kinase like 1) | 0.58 | inactive
MAPK13 (mitogen-activated protein kinase 13) | 0.58 | inactive
STK16 (serine/threonine kinase 16) | 0.58 | inactive
CDK19 (cyclin dependent kinase 19) | -0.817 | inactive
FGFR2 (fibroblast growth factor receptor 2) | 0.58 | inactive
INSRR (insulin receptor related receptor) | -1.87 | inactive
TEC (tec protein tyrosine kinase) | 0.58 | inactive
GNE | 0.58 | inactive
STK11 (serine/threonine kinase 11) | -0.0163 | inactive
NADK (NAD kinase) | 0.58 | inactive
AK2 (adenylate kinase 2) | 0.58 | inactive
CHEK1 (checkpoint kinase 1) | -3.25 | active
CKMT1B (creatine kinase, mitochondrial 1B) | 0.487 | inactive
GRK2 (G protein-coupled receptor kinase 2) | 0.58 | inactive
MAGI3 | 0.58 | inactive
PNKP (polynucleotide kinase 3'-phosphatase) | 0.58 | inactive
TP53BP1 (tumor protein p53 binding protein 1) | 0.58 | inactive
MAP2K3 (mitogen-activated protein kinase kinase 3) | 0.58 | inactive
FYN (FYN proto-oncogene, Src family tyrosine kinase) | 0.136 | inactive
STK32A (serine/threonine kinase 32A) | 0.58 | inactive
MECOM (MDS1 and EVI1 complex locus) | 0.58 | inactive
PIK3CB | -0.989 | inactive
AK7 (adenylate kinase 7) | 0.58 | inactive
PKLR (pyruvate kinase L/R) | 0.138 | inactive
MAP2K1 (mitogen-activated protein kinase kinase 1) | 0.58 | inactive
ERBB4 (erb-b2 receptor tyrosine kinase 4) | 0.58 | inactive
RPS6KA4 (ribosomal protein S6 kinase A4) | -0.112 | inactive
SNRK (SNF related kinase) | 0.58 | inactive
